The text below walks through data of PMC4409568 (Neuron, 2015).

By UniProt entry, the sequences of proteins in these tests, tags left out. Residues count along the entry.
UniProt Q63053, 207-278: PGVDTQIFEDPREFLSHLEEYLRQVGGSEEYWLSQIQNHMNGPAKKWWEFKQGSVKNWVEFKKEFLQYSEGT

pIC50: −log10 of the molar value.

Experiment [1] concerns the target T1, Arc(207-278) binding to TARPγ2 peptide (Rattus norvegicus, UniProt Q63053). As to conditions: FP competition; Figure 5E.
For experiment [2], the target named is T1, Arc(207-278) binding to TARPγ2 peptide. Nature of the experiment: biochemical.

As a reminder, the pIC50 is the negative decadic logarithm of the IC50, by convention in mol/L. Low values mean a large IC50, high ones a small IC50.

On to `CSc1ccc2c(c1)N(CCC1CCCCN1C)c1ccccc1S2` (centres unmarked) [Thioridazine], for which the “binding inhibited over 1 log [Thioridazine]” value in experiment [1] is given as ~ 80%. Besides, the negative logarithm of the IC50 (pIC50) in experiment [2] is 3.71.
